Reference: the odorant receptor screen of Mainland et al. (2015)
“And” between values parts separate entries of the source, which are not always exact repeats. Equal entries are not always repeated. The list shows a part of the results. Single wells; the ratio to wells without odorant was worked out here, and repeats agree poorly.

Legend:
Assay in all cases: odorant receptor activation (CRE luciferase / Renilla) (fold of no-odor wells); higher = more activation
Settings in all cases: 100 µM
[1] = system: OR5M1 S282T clone 1208
[2] = system: OR5M10 V69L clone 1125
[3] = system: OR5M11 clone 1236
[4] = system: OR5M8 clone 1523
[5] = system: OR5M9 clone 1194
[6] = system: OR5P2 clone 1185
[7] = system: OR5P3 clone 1115
[8] = system: OR5R1 clone 1162
[9] = system: OR5T1 clone 1249
[10] = system: OR5T1 clone 1399

SMILES | odorant receptor activation [1] | odorant receptor activation [2] | odorant receptor activation [3] | odorant receptor activation [4] | odorant receptor activation [5] | odorant receptor activation [6] | odorant receptor activation [7] | odorant receptor activation [8] | odorant receptor activation [9] | odorant receptor activation [10]
C=CCc1ccc(OC(C)=O)c(OC)c1 [eugenol acetate] | 1.42 | 1.21 | 1.31 | 1.09 | 1.71 | 2.69 | 1.81 | 2.18 | 1.72 | 1.5
CC(C)CC(=O)O [isovaleric acid] | 0.961 | 0.686 | 1.17 | 0.973 | 1.15 | 1.17 | 1.39 | 1.17 | 0.944 | 0.717
O=C1CCCCCCCCCCCCCCO1 [pentadecalactone] | 0.727 | 1.11 | 0.961 | 0.971 | 0.706 | 0.86 | 0.765 | 0.746 | 0.79 | 1.22
COc1ccccc1O [guaiacol] | 1.07 | 1.28 | 0.964 | 0.797 and 1.07 | 1.2 | 1.09 | 0.935 | 1.12 | 1.19 and 1.11 | 0.821
C=CCc1ccc(O)c(OC)c1 [eugenol] | 1.36 and 1.09 | 1.15 | 1.08 | 0.662 and 1.09 and 1 | 1.46 and 1.25 | 1.75 and 1.5 | 1.93 and 1.38 | 1.95 and 1.45 | 0.588 and 1.19 | 1.07 and 0.996
CCCCCCCC=CC=O [2-decenal] | 0.895 | 1.13 | 0.963 | 1.15 | 0.886 | 0.914 | 5.64 | 1.17 | 0.643 | 2.64
CCCCCCCCOC(C)=O [octyl acetate] | 1.02 | 1.09 | 0.754 | 0.808 | 0.858 | 1.28 | 1.33 | 1.08 | 1.14 | 0.845
COc1cc(C=O)ccc1O [vanillin] | 0.828 | 0.846 | 0.599 | 0.971 | 1.13 | 1.36 | 0.864 | 0.86 | 0.947 | 0.98
CCC1(O)C2(C)CCC(C2)C1(C)C (stereo not given) [2-ethylfenchol] | 0.974 | 0.959 | 0.582 | 1.18 | 1.21 | 1.06 | 6.63 | 0.854 | 0.925 | 1.43
CC1CCC(C(C)C)C(O)C1 (single isomer, unassigned; (-)) [(-)-menthol] | 0.869 | 0.976 | 1.35 | 2.99 | 0.966 | 0.943 | 13.3 | 1.1 | 0.972 | 0.624
c1cnccn1 [pyrazine] | 0.778 | 1.06 | 0.916 | 0.671 | 0.81 | 1.09 | 0.843 | 0.765 | 0.762 | 1.26
CCCCCCOC(=O)CCC [hexyl butyrate] | 1.21 | 1.04 | 0.99 | 1.04 and 0.952 | 0.966 | 1.01 | 1.13 | 0.989 | 0.793 and 1.09 | 0.8
CCCCCCCCCCC=O [undecanal] | 0.728 | 0.826 | 0.89 | 1.03 | 1.15 | 1.15 | 0.858 | 0.672 | 0.991 | 1.19
CC/C=C\CCO [cis-3-hexen-1-ol] | 1.04 | 0.923 | 1.11 | 0.963 | 1.07 | 1.18 | 1.3 | 1.04 | 1.16 | 0.205
O=C1CCCCCCCCCCCC(=O)OCCO1 [ethylene brassylate] | 1.81 | 1.24 | 1 | 1.16 | 1.77 | 3.01 | 2.02 | 2.04 | 1.73 | 1.32
CC(C)C(=O)O [isobutyric acid] | 1.11 | 0.574 | 1.02 | 0.818 and 0.813 | 1.03 | 0.913 | 0.704 | 1.08 | 1.01 and 1.3 | 0.797
CCCC(=O)O [butyric acid] | 1.3 | 1.05 | 0.877 | 1.18 | 1.23 | 1.36 | 1.05 | 1.03 | 1.07 | 0.21
CC(C)=CCCC(C)=CC=O [citral] | 1.06 | 0.941 | 1.14 | 1.08 | 1.35 | 1.19 | 0.993 | 1.07 | 1.1 | 0.268
COC(=O)c1ccccc1O [methyl salicylate] | 0.843 | 0.945 | 0.817 | 1.14 | 0.921 | 0.959 | 2.81 | 0.853 | 0.985 | 1.18

SMILES | odorant receptor activation [1] | odorant receptor activation [2] | odorant receptor activation [3] | odorant receptor activation [4] | odorant receptor activation [5] | odorant receptor activation [6] | odorant receptor activation [7] | odorant receptor activation [8] | odorant receptor activation [9] | odorant receptor activation [10]
CC(C)CCC(=O)O [4-methylvaleric acid] | 1.05 | 0.893 | 0.77 | 0.835 | 0.847 | 0.816 | 2.69 | 1.06 | 1.19 | 1.54
CCCCCCCOC(C)=O [heptyl acetate] | 0.983 | 1.18 | 0.98 | 0.725 and 1.15 | 1.07 | 1.13 | 0.739 | 0.808 | 1.14 and 1.13 | 1.06
c1ccc(Oc2ccccc2)cc1 [diphenyl ether] | 0.825 | 1.14 | 0.847 | 0.727 | 0.822 | 1.19 | 0.843 | 1.01 | 0.972 | 0.849
CC=Cc1ccc(O)c(OC)c1 [isoeugenol] | 2.27 | 2.42 | 5.35 | 1.05 and 1.85 | 2.01 | 2 | 1.58 | 1.19 | 1.73 and 1.51 | 1.34
COc1cc(C)ccc1O [2-methoxy-4-methylphenol] | 0.893 | 0.975 | 0.987 | 0.778 | 1.13 | 0.931 | 5.93 | 1.31 | 1.24 | 0.939
CC(=O)OCC=C(C)CCC=C(C)C [geranyl acetate] | 1.36 | 2.31 | 2.17 | 0.839 and 1.57 | 1.58 | 1.45 | 0.763 | 0.833 | 1.15 and 1.36 | 1.07
C=CCc1ccc(OC)c(OC)c1 [eugenol methyl ether] | 1.23 | 1.5 | 1.31 | 1.25 | 1.42 | 1.91 | 2.23 | 1.87 | 1.52 | 1.18
CCCCO [1-butanol] | 0.862 | 0.87 | 0.931 | 1.25 | 1.08 | 0.791 | 5.38 | 1.02 | 1.17 | 0.948
CCCCCC(=O)O [caproic acid] | 1.39 | 0.807 | 0.961 | 1.02 | 1.21 | 1.12 | 0.807 | 1.13 | 0.844 | 0.197
CC(=O)c1ccccc1 [acetophenone] | 0.926 |  |  | 0.593 and 0.803 | 0.782 | 0.611 | 4.74 | 1.09 | 1.1 | 0.875
C=CCSCC=C [diallyl sulfide] | 1.03 | 1.08 | 0.705 | 1.27 | 0.891 | 1.41 | 1.07 | 1.26 | 0.971 | 0.932
CC12C=CCC1C1CCC3CC(=O)CCC3(C)C1CC2 (stereo not given) [androstenone] | 8.83 |  |  | 1.14 | 6.91 | 5.83 | 2.61 | 6.16 | 1.34 | 1.03
CC(C)C=O [isobutyraldehyde] | 1.07 | 0.673 | 0.972 | 0.876 and 1.05 | 1.11 | 1.15 | 0.668 | 1.09 | 1.18 and 1.51 | 0.891
CCCCCOC(C)=O [n-amyl acetate] | 0.561 | 0.843 | 0.802 | 0.773 and 0.98 | 0.323 | 0.364 | 1.26 | 0.561 | 0.271 | 0.826
CC(=O)OC1CC2CCC1(C)C2(C)C (stereo not given) [isobornyl acetate] | 1.07 | 0.66 | 0.769 | 0.806 and 1.22 | 0.915 | 1.05 | 0.745 | 1.03 | 1.01 and 1.25 | 0.815
C=CC(C)(O)CCC=C(C)C (stereo not given) [linalool] | 0.867 | 1.05 | 0.983 | 1.11 | 1.18 | 0.962 | 1.36 | 0.917 | 1.1 | 0.788
CCCCCC(C)=O [2-heptanone] | 1.03 |  |  | 0.563 and 0.704 | 0.79 | 0.738 | 0.874 | 1.24 | 1.05 | 0.891
CC12CCC(CC1)C(C)(C)O2 [cineole] | 1.01 | 0.743 | 0.839 | 1 | 0.979 | 0.906 | 0.963 | 0.787 | 1.06 | 0.189
C=C(C)C1CCC2=CC(=O)CC(C)C2(C)C1 (stereo not given) [amyl laurate] |  | 2.15 | 0.887 |  |  |  |  |  |  | 

Three entries picked at random from those above:
SMILES | odorant receptor activation [1] | odorant receptor activation [2] | odorant receptor activation [3] | odorant receptor activation [4] | odorant receptor activation [5] | odorant receptor activation [6] | odorant receptor activation [7] | odorant receptor activation [8] | odorant receptor activation [9] | odorant receptor activation [10]
CC/C=C\CCO [cis-3-hexen-1-ol] | 1.04 | 0.923 | 1.11 | 0.963 | 1.07 | 1.18 | 1.3 | 1.04 | 1.16 | 0.205
CCCCCCCCOC(C)=O [octyl acetate] | 1.02 | 1.09 | 0.754 | 0.808 | 0.858 | 1.28 | 1.33 | 1.08 | 1.14 | 0.845
c1ccc(Oc2ccccc2)cc1 [diphenyl ether] | 0.825 | 1.14 | 0.847 | 0.727 | 0.822 | 1.19 | 0.843 | 1.01 | 0.972 | 0.849

Going on with the list:

SMILES | odorant receptor activation [1] | odorant receptor activation [2] | odorant receptor activation [3] | odorant receptor activation [4] | odorant receptor activation [5] | odorant receptor activation [6] | odorant receptor activation [7] | odorant receptor activation [8] | odorant receptor activation [9] | odorant receptor activation [10]
CCCCCCC=O [heptaldehyde] |  | 1.46 | 1.34 |  |  |  | 1.33 and 0.605 |  | 0.93 and 1.04 and 1.46 | 0.915 and 0.696
CC1=NC(C)SC1C (stereo not given) | 0.705 |  |  | 0.755 and 1.14 | 0.649 | 0.611 | 1.05 | 0.579 | 1.09 | 0.956
C=C(C)C1CC=CCC1 (stereo not given) [r-limonene] | 0.996 and 0.43 | 1.19 | 1.08 | 0.891 and 0.743 and 0.955 | 0.842 and 0.344 |  | 1.55 and 1.57 | 0.931 and 0.408 |  | 1.47 and 0.853
CCCCCCCCCC=O [decyl aldehyde] | 1.22 | 1.03 | 0.808 | 0.908 | 1.2 | 1.52 | 1.14 | 1.34 | 1.06 | 1.05
CC(=O)OC(C)(C)C1CC=C(C)CC1 (stereo not given) [terpinyl acetate] | 0.857 | 0.836 | 1.03 | 0.651 | 1.08 | 1.14 | 1.05 | 0.966 | 1 | 1.08
CC1=CCC(C(C)(C)O)CC1 (stereo not given) [terpineol] | 0.736 | 0.866 | 0.886 | 0.888 | 1.1 | 1.28 | 1.76 | 1.18 | 0.744 | 1.25
CC12CCC(C1)C(C)(C)C2=O (stereo not given) [fenchone] | 0.837 | 1.32 | 1.09 | 1.09 | 0.951 | 1.12 | 0.915 | 1.09 | 1.11 | 0.803
CC(=O)C(C)=O [diacetyl] | 1.07 | 1.21 | 0.843 | 1.05 | 0.892 | 1.26 | 0.895 | 1.33 | 1 | 1.06
CCCCCCCC=O [octyl aldehyde] | 0.906 | 1.14 | 0.869 | 1.1 | 0.886 | 1.26 | 1.3 | 1.11 | 1.36 | 0.905
CC(C)(C)c1ccc(CCC=O)cc1 [bourgeonal] | 0.778 |  |  | 1.07 | 0.732 | 0.879 | 1.2 | 0.861 | 0.654 | 0.179
CC1COCc2cc3c(cc21)C(C)(C)C(C)C3(C)C (stereo not given) [galaxolide] | 4.69 | 0.797 and 0.858 | 0.436 and 0.901 | 4.21 and 4.59 | 3.88 | 3.64 | 1.46 | 0.717 |  | 3.24
O=C1CCCCC1 [Cyclohexanone] | 0.614 |  |  | 0.733 and 1.01 | 0.675 | 0.688 | 1.2 | 0.681 | 0.164 | 0.724
O=CCc1ccccc1 [phenyl acetaldehyde] | 0.846 | 1.34 | 1.91 | 0.834 | 0.834 | 1.47 | 1.01 | 0.964 | 1.12 | 1.6
CC1CCC(C(C)C)C(O)C1 (single isomer, unassigned; (+)) [(+)-menthol] | 1.01 | 0.989 | 1.29 | 1.14 | 1.05 | 1.16 | 5.34 | 1.21 | 1.17 | 1.1
CC(C)(O)CCCC1=CCC(C=O)CC1 (stereo not given) [lyral] |  | 0.99 | 0.989 |  |  |  |  |  |  | 
CCCCCCCCC=O [nonyl aldehyde] | 0.965 | 1.22 | 0.819 | 0.828 | 0.991 | 0.981 | 1.63 | 0.912 | 1.01 | 0.794
CC12C=CCC1C1CCC3=CC(=O)CCC3(C)C1CC2 (stereo not given) [androstadienone] | 1.14 |  |  | 0.899 and 1.31 | 1.17 | 1.08 | 1.16 | 0.983 | 0.991 and 1.17 | 0.865
COC(=O)c1ccccc1 [methyl benzoate] | 0.704 |  |  | 0.753 and 1.14 | 0.837 | 0.408 | 4.71 | 0.743 | 0.253 | 0.804
C=C(C)C1CC=C(C)C(=O)C1 (stereo not given) [r-carvone] | 0.929 | 1.18 | 0.789 | 1.01 | 0.856 | 1.1 | 4.38 | 0.868 | 0.711 | 1.25
